These are yes or no findings as the source states them, for the method shown. Binding seen in cells or lysates may run through a third protein. Some results given as binding are weak or reduced against the parent protein; the word gives no strength.
What was measured:
[1] = biological target: p21 (endogenous, A549 cells) (human (endogenous in A549)) (UniProt P38936); experiment: co-IP; endogenous proteins of A549 cell lysates precipitated with anti-p21 or anti-RanBPM antibody, isotype control IgG as control; also after 5 uM Etop or 0.5 uM Dox for 8 h (Fig. 6G-H), and after transfection of RanBPM plasmid or RanBPM siRNAs and MG132 for 6 h (Fig. 4B-C)
[2] = biological target: Flag-RanBPM (UniProt Q96S59); experiment: co-IP; sequential immunoprecipitation: HEK293T co-transfected with Flag-RanBPM, HA-USP11 and Myc-p21, MG132; first anti-Flag M2 agarose and elution with Flag peptides, then anti-Myc or control IgG
[3] = biological target: Myc-p21 (UniProt P38936); experiment: as above
[4] = biological target: RanBPM (endogenous, A549 cells) (human (endogenous in A549)) (UniProt Q96S59); experiment: co-IP; endogenous proteins of A549 cell lysates precipitated with anti-p21 or anti-RanBPM antibody, isotype control IgG as control; also after 5 uM Etop or 0.5 uM Dox for 8 h (Fig. 6G-H), and after transfection of RanBPM plasmid or RanBPM siRNAs and MG132 for 6 h (Fig. 4B-C)
[5] = biological target: Flag-RanBPM (UniProt Q96S59); experiment: co-IP; HEK293T cells transfected with Flag-RanBPM and/or Myc-p21; precipitation with anti-Flag or anti-Myc antibody

Amino acid sequences for entries named in this document (tags omitted).
UniProt P38936: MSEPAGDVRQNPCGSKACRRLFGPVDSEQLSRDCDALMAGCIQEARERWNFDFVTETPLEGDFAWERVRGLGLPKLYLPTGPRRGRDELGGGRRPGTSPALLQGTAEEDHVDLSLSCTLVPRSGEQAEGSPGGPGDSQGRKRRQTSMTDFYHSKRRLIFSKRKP
UniProt Q96S59: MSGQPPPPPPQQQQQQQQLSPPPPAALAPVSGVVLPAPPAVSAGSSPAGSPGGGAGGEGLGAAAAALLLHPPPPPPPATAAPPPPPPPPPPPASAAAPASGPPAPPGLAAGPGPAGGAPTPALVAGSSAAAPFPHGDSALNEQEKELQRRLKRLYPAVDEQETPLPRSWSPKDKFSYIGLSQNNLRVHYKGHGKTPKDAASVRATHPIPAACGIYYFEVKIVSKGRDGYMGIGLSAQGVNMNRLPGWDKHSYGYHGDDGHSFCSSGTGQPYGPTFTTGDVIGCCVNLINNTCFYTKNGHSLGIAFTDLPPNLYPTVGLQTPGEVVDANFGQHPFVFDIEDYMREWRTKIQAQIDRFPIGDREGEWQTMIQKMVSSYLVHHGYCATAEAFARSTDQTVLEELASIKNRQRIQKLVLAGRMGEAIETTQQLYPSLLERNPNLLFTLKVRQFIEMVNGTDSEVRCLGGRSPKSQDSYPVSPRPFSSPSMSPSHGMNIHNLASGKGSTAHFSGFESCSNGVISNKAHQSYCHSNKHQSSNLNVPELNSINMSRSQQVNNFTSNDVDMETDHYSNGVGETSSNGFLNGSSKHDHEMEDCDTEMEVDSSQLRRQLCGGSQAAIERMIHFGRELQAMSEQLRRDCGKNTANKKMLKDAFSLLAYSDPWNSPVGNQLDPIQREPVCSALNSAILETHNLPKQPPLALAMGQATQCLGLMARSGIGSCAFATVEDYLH
UniProt P51784: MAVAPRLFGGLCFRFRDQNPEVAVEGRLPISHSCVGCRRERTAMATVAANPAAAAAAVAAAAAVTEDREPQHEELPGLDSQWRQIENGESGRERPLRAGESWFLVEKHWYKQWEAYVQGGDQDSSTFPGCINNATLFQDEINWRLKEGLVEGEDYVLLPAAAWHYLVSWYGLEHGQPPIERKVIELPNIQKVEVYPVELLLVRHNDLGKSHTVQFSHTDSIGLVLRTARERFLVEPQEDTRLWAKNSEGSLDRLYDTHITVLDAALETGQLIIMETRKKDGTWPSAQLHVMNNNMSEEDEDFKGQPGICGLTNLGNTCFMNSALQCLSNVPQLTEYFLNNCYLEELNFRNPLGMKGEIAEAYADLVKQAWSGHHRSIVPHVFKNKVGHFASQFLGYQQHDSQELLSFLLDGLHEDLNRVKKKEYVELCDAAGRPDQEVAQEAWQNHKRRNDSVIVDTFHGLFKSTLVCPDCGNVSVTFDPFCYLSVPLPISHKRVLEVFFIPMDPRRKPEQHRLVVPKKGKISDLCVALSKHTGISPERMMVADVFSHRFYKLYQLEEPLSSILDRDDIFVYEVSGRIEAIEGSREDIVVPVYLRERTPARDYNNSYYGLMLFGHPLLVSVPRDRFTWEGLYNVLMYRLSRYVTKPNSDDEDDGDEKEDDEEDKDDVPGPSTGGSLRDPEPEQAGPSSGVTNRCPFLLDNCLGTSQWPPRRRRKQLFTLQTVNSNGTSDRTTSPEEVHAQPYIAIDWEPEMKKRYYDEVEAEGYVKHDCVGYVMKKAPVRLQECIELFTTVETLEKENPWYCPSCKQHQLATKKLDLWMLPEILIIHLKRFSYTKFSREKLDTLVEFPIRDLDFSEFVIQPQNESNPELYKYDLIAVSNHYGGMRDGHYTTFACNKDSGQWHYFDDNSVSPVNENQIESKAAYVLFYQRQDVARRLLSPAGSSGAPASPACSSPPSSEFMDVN

Question: Which binding [1] does the source give for “USP11 (endogenous, A549 cells) (from UniProt P51784 1-963) (enzyme)” here?
Answer: The binding was “binds”.

Question: How did the binding [2] turn out when “HA-USP11 (from UniProt P51784 1-963) (enzyme)” was run?
Answer: Its binding is “binds”.

Question: And the binding [3]?
Answer: The binding was “binds”.

Question: For “p21 (endogenous, A549 cells) (from UniProt P38936 1-164)”, which binding [4] is on record?
Answer: Its binding is “binds”.

Question: Myc-p21 (from UniProt P38936 1-164) was tested. Which binding [5] did it give?
Answer: Its binding is “binds”.

Question: And the binding [2]?
Answer: Its binding is “binds”.
